# From the supplement of paper PMC12819154, “High-throughput peptide-centric local stability assay extends protein–ligand identification to membrane proteins, tissues and bacteria” (Nature Structural & Molecular Biology, 2025)
# Amino acid sequences for entries named in this document (tags omitted). A change or cut given only in a name is not applied to a line headed by its entry.
# UniProt Q9CY34: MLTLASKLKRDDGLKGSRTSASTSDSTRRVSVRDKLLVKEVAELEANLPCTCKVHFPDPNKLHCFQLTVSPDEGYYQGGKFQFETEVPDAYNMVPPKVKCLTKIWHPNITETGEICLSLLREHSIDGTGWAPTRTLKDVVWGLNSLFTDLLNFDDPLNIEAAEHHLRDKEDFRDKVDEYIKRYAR
# UniProt Q9CYI4: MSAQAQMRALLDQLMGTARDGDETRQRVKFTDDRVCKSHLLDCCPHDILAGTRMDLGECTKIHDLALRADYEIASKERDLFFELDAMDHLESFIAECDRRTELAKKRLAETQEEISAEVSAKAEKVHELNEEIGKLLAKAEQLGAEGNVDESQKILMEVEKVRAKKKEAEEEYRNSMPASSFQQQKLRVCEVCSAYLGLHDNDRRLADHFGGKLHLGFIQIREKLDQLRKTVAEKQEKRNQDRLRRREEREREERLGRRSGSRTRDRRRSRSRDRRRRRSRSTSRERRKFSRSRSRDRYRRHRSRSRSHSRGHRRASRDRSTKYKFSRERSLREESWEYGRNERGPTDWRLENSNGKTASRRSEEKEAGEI
# UniProt Q9CSB4: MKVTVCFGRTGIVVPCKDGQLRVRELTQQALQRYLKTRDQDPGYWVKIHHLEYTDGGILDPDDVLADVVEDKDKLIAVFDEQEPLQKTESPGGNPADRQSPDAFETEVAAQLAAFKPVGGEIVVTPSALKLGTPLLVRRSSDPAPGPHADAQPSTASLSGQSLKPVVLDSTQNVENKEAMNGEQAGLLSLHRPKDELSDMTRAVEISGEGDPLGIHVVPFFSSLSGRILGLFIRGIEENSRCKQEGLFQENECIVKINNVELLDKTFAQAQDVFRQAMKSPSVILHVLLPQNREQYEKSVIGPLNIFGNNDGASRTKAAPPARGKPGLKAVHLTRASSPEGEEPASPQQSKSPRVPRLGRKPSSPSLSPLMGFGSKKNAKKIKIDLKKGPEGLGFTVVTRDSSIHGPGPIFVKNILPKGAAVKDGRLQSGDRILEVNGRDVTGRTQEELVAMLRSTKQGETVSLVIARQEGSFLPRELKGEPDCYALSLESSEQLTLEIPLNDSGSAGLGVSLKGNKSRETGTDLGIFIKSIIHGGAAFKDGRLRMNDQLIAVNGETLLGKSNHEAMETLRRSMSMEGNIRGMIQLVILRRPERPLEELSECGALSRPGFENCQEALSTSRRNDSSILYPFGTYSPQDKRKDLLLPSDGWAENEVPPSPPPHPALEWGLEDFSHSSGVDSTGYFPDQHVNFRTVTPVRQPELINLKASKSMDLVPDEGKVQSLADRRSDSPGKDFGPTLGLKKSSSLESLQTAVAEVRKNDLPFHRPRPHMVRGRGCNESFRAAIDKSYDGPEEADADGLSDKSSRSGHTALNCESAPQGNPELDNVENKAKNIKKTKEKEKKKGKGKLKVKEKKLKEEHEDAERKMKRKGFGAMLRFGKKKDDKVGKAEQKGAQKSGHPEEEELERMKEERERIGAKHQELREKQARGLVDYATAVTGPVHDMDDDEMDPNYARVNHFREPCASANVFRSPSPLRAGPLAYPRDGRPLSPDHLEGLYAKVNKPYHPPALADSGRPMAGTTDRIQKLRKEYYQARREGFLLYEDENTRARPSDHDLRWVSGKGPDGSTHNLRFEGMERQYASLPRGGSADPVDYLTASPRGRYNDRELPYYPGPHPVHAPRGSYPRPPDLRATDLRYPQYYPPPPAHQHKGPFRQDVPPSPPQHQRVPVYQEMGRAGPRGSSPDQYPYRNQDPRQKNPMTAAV
# UniProt Q9CWH5: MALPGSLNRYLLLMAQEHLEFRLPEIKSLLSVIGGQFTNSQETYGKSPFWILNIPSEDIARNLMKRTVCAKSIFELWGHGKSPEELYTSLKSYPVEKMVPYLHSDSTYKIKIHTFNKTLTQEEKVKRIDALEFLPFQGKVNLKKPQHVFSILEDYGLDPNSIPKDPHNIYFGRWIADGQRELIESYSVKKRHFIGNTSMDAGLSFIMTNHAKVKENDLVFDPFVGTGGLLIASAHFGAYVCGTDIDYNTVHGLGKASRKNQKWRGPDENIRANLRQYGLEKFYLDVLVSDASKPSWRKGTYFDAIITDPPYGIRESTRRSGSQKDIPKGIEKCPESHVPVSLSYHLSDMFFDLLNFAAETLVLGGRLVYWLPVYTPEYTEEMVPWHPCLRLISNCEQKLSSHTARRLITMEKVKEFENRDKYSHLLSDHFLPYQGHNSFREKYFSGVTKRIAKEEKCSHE
# UniProt Q9CXL3: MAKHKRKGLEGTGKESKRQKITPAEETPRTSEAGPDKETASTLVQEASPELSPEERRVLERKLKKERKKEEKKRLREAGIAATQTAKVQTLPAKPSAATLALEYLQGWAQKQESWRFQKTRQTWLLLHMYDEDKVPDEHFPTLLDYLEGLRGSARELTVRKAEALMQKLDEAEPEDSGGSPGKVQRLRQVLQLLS
# UniProt Q9CY52: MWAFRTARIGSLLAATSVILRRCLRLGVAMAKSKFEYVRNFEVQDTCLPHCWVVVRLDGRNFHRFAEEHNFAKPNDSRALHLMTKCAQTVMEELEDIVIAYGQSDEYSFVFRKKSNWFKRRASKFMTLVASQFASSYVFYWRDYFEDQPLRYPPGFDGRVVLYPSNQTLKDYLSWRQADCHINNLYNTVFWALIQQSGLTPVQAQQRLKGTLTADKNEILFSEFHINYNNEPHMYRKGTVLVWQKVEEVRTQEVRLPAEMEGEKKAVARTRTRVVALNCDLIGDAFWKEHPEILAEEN
# UniProt Q9CX25: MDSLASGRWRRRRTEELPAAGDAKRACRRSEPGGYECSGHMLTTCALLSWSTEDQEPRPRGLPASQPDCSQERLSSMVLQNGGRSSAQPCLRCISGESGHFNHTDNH
# UniProt Q9CZ04: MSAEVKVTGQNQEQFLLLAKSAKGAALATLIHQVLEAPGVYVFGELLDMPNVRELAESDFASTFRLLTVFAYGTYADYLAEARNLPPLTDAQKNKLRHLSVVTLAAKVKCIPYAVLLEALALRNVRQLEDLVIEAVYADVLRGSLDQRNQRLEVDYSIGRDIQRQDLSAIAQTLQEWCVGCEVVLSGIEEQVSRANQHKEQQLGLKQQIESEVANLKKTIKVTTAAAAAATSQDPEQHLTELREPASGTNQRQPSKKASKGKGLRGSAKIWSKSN
# UniProt Q9CYF5, whole entry, looked up: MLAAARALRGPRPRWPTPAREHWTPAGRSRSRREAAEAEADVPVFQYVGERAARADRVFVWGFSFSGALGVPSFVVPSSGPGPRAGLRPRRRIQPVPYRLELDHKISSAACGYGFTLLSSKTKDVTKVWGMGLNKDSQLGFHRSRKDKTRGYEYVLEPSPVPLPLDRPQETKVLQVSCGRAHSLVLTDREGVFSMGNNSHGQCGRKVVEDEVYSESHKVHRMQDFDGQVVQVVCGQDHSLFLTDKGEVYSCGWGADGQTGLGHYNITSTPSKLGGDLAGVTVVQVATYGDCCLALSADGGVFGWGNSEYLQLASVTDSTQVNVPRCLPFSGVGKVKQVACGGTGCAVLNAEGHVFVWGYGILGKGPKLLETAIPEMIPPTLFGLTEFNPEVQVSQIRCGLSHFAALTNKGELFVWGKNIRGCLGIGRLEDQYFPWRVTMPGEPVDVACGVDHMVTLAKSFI
# UniProt Q9D0U6: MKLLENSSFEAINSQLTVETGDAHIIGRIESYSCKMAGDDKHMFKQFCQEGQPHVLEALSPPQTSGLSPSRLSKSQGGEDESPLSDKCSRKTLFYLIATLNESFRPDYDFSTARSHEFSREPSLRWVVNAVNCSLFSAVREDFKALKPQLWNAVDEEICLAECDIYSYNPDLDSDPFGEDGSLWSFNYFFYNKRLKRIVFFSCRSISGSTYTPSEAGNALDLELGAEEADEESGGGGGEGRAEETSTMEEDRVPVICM
# UniProt Q9D011: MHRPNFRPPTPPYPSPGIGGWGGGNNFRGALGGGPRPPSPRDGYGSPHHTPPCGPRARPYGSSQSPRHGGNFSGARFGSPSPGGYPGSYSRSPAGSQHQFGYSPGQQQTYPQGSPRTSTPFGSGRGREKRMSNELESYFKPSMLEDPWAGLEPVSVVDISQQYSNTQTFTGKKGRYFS
# UniProt Q9CXV9: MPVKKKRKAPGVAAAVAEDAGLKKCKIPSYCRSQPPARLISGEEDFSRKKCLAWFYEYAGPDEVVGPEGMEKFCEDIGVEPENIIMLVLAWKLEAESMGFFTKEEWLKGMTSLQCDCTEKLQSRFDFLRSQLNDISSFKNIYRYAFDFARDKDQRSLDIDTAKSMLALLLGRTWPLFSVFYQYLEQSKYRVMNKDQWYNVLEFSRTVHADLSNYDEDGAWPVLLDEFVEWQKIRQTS
# UniProt Q9CXJ4: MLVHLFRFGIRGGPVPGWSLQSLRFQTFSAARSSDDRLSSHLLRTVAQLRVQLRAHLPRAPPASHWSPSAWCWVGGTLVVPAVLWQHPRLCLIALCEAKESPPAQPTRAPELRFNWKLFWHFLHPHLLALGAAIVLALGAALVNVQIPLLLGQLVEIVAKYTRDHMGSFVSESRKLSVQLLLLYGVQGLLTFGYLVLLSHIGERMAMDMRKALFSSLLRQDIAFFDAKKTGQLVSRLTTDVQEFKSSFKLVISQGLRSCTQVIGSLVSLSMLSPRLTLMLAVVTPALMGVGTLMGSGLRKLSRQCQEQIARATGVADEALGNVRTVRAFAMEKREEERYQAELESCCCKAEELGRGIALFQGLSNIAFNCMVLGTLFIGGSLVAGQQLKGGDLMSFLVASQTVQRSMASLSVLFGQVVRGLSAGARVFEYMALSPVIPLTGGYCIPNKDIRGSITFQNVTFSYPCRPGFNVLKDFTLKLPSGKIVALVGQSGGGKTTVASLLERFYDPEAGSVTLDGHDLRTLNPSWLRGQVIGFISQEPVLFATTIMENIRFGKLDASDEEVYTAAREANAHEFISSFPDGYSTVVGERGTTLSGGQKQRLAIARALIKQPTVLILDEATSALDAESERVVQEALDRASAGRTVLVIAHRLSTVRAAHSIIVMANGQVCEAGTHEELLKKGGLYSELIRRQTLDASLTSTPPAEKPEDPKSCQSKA
# UniProt Q9CWD8: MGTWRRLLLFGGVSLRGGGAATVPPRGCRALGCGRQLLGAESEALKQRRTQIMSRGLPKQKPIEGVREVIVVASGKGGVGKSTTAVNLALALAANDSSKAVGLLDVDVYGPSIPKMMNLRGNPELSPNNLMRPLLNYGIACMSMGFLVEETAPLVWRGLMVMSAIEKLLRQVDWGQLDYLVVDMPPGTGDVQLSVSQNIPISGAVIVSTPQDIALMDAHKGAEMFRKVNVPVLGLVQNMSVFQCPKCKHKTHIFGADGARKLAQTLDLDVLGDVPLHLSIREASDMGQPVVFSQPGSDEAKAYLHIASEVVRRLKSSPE
# UniProt Q9CSH3: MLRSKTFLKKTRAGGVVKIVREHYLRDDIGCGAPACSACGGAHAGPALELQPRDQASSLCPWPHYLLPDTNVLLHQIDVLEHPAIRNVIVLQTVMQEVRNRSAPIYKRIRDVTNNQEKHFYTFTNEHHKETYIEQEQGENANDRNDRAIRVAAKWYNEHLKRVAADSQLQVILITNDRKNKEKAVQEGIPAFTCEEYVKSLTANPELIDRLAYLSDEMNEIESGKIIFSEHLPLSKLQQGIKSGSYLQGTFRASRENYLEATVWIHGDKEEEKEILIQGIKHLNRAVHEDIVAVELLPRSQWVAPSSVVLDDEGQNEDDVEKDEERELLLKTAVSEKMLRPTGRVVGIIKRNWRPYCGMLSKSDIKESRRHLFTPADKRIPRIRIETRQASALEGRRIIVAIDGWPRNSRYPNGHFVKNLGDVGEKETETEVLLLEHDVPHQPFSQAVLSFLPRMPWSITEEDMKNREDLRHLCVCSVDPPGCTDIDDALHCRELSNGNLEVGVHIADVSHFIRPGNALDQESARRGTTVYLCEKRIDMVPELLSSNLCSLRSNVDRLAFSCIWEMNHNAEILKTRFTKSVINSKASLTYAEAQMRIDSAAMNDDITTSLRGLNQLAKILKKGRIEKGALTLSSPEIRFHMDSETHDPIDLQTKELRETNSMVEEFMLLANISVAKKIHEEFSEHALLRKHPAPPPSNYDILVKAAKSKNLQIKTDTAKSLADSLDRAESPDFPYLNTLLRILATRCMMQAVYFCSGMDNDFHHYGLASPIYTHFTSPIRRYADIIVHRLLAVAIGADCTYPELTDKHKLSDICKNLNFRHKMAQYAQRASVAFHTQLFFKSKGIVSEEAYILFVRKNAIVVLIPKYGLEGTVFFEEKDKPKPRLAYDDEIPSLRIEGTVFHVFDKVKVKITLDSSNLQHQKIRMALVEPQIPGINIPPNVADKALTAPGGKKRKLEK
# UniProt Q9CWX2: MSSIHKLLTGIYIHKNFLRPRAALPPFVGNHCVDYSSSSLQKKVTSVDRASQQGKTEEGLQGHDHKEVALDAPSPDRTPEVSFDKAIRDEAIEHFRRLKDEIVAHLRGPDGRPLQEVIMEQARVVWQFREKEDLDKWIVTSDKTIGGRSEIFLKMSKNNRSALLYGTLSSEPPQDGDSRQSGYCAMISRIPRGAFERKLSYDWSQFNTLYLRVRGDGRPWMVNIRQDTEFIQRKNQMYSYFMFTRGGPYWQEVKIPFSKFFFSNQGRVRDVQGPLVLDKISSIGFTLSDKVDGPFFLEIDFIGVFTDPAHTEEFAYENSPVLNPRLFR
# The list shows a part of the results. Small differences around the control level are noise.
# Compound: CN[C@@H]1C[C@H]2O[C@@](C)([C@@H]1OC)n1c3ccccc3c3c4c(c5c6ccccc6n2c5c31)C(=O)NC4 [staurosporine]
# Experiment: log2 fold change of tryptic peptide abundance, ligand vs vehicle (limited proteolysis) (log2 ratio); higher = more trypsin-susceptible (destabilized)
# Conditions: ligand concentration: 20 uM; sample: mouse liver crude lysate; replicate design: treated separately
row,Target,log2 fold change
1,"UniProt Q9CY34 (peptide sequence: VDEYIKR, peptide start residue: 176)",0.426
2,"UniProt Q9CYI4 (peptide sequence: ILMEVEK, peptide start residue: 155)",0.177
3,"UniProt Q9CSB4 (peptide sequence: GPDGSTHNLR, peptide start residue: 1063)",-0.817
4,"UniProt Q9D0L7 (peptide sequence: LANQIPFAK, peptide start residue: 260)",0.151
5,"UniProt Q9CWH5 (peptide sequence: SIFELWGHGK, peptide start residue: 72)",0.224
6,"UniProt Q9CXL3 (peptide sequence: QKITPAEETPR, peptide start residue: 19)",-0.195
7,"UniProt Q9CZS1 (peptide sequence: LFINNEWHDAVSK, peptide start residue: 41)",0.167
8,"UniProt Q9CX56 (peptide sequence: ILFFSTPK, peptide start residue: 293)",-0.605
9,"UniProt Q9CWK3 (peptide sequence: LSGLADQMVAR, peptide start residue: 203)",0.0989
10,"UniProt Q9CR88 (peptide sequence: HLADHGLLSGVQR, peptide start residue: 113)",-0.353
11,"UniProt Q9CY52 (peptide sequence: LPAEMEGEKK, peptide start residue: 256)",-0.0268
12,"UniProt Q9CXS4 (peptide sequence: AQHTFCKRCGVQSFYTPR, peptide start residue: 188)",-0.235
13,"UniProt Q9CWI3 (peptide sequence: LLNDTSKPVGLLLSER, peptide start residue: 170)",0.252
14,"UniProt Q9CX25 (peptide sequence: RTEELPAAGDAKR, peptide start residue: 13)",0.315
15,"UniProt Q9CXU1 (peptide sequence: FIDEQQILHWQHYSR, peptide start residue: 96)",0.253
16,"UniProt Q9CYK1 (peptide sequence: YGEFFPLPK, peptide start residue: 200)",-0.461
17,"UniProt Q9CXW2 (peptide sequence: TMYSQDR, peptide start residue: 216)",-0.506
18,"UniProt Q9D0B5 (peptide sequence: YCQVKPSK, peptide start residue: 99)",0.327

row,Target,log2 fold change
1,"UniProt Q9CZ04 (peptide sequence: HLSVVTLAAK, peptide start residue: 98)",-0.303
2,"UniProt Q9CY21 (peptide sequence: SRRPEHSGPPELFYDQNEAR, peptide start residue: 5)",-0.349
3,"UniProt Q9CYF5 (peptide sequence: VLQVSCGR, peptide start residue: 173)",-0.112
4,"UniProt Q9CXT8 (peptide sequence: IDAVDAETVR, peptide start residue: 442)",-0.307
5,"UniProt Q9D0U6 (peptide sequence: IESYSCK, peptide start residue: 29)",-0.0804
6,"UniProt Q9D011 (peptide sequence: DGYGSPHHTPPCGPR, peptide start residue: 42)",0.129
7,"UniProt Q9CXV9 (peptide sequence: CKIPSYCR, peptide start residue: 25)",-0.155
8,"UniProt Q9CXJ4 (peptide sequence: FGKLDASDEEVYTAAR, peptide start residue: 553)",-0.474
9,"UniProt Q9CWH6 (peptide sequence: ALLEVVQSGGK, peptide start residue: 194)",-0.0642
10,"UniProt Q9CWD8 (peptide sequence: HKTHIFGADGAR, peptide start residue: 249)",-0.239
11,"UniProt Q9CYQ7 (peptide sequence: GQAQTEDGHTDR, peptide start residue: 389)",-0.32
12,"UniProt Q9CSH3 (peptide sequence: WYNEHLKR, peptide start residue: 155)",-0.672
13,"UniProt Q9CW03 (peptide sequence: IKLEGIITR, peptide start residue: 819)",0.34
14,"UniProt Q9CZP5 (peptide sequence: EFIDNPK, peptide start residue: 207)",-0.335
15,"UniProt Q9D0Y8 (peptide sequence: GTLLRSPLPNQ, peptide start residue: 111)",-0.0923
16,"UniProt Q9D0J4 (peptide sequence: LLMLGLDNAGK, peptide start residue: 19)",0.117
17,"UniProt Q9CWX2 (peptide sequence: FFFSNQGR, peptide start residue: 260)",-0.304

# Quoted from the listing.
# UniProt Q9CSH3 (peptide sequence: WYNEHLKR, peptide start residue: 155) | log2 fold change: -0.672
# UniProt Q9D011 (peptide sequence: DGYGSPHHTPPCGPR, peptide start residue: 42) | log2 fold change: 0.129
